Laboratory results reported in the M2OR odorant receptor database.
The entries are a selection whose mix differs from that of the whole data set. Calls are pooled over several reports, among them a noisy single-well screen. The list shows a part of the results.

Key:
Details in all cases: stereoisomer not certain
OR4L1 = tested on: T1, OR4L1
T1 sequence (whole entry): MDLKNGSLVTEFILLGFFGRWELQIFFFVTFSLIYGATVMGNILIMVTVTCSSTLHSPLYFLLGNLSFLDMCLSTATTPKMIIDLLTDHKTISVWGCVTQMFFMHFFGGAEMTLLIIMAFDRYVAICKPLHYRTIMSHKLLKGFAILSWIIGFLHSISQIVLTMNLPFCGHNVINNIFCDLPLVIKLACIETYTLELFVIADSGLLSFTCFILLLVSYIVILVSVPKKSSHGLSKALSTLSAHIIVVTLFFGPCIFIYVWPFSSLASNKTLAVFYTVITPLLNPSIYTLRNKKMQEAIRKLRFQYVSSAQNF
Method in brief: (§1)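 Each entry records the cell line, G-protein, co-transfected protein and tags used. Methods varied with the source, often transient luciferase assays in mammalian cell lines. A receptor–molecule pair is called responsive (active) if the original authors judged its signal statistically different from baseline and non-responsive (inactive) otherwise.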

OR4M1 (Homo sapiens) = target: T2, OR4M1 (Homo sapiens) (UniProt Q8NGD0)
T2 sequence (whole entry): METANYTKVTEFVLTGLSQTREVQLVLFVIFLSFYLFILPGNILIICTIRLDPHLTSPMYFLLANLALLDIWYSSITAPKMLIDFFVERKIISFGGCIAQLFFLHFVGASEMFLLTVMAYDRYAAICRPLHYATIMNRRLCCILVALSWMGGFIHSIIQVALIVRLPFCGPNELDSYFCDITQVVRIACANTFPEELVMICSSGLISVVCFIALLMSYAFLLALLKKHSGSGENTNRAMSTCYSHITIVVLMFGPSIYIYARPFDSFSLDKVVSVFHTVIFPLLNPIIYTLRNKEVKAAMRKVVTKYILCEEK
Method in brief: as §1

OR4N2 (Homo sapiens) = target: T3, OR4N2 (Homo sapiens) (UniProt Q8NGD1)
T3 sequence (whole entry): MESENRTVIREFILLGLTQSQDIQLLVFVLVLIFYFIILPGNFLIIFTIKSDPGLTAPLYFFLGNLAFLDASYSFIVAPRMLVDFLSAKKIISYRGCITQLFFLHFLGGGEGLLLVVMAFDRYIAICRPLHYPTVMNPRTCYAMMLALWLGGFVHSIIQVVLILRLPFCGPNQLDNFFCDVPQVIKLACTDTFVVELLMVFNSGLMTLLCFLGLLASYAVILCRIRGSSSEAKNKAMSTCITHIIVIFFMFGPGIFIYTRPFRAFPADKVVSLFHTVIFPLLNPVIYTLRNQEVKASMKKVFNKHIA
Method in brief: as §1

OR4N4 (Homo sapiens) = target: T4, OR4N4 (Homo sapiens) (UniProt Q8N0Y3)
T4 sequence (whole entry): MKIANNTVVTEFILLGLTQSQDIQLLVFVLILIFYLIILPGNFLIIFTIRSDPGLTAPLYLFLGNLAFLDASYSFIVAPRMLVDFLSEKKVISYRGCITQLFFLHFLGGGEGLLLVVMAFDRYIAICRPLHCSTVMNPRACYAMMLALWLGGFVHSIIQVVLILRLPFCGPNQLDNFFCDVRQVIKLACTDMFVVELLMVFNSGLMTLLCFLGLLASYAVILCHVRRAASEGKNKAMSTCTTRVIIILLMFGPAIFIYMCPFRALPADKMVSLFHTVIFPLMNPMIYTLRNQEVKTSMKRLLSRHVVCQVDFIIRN
Method in brief: as §1

OR4N5 (Homo sapiens) = target: T5, OR4N5 (Homo sapiens) (UniProt Q8IXE1)
T5 sequence (whole entry): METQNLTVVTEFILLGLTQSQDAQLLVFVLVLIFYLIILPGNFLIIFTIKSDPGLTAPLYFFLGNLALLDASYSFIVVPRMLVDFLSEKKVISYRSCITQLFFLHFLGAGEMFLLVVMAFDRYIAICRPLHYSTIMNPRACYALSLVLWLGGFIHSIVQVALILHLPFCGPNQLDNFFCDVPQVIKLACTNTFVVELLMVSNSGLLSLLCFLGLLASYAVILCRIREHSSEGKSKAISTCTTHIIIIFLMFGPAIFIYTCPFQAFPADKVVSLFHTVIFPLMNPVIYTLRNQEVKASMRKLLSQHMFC
Method in brief: as §1

OR4P4 [1] = tested on: T6, OR4P4
T6 sequence (whole entry): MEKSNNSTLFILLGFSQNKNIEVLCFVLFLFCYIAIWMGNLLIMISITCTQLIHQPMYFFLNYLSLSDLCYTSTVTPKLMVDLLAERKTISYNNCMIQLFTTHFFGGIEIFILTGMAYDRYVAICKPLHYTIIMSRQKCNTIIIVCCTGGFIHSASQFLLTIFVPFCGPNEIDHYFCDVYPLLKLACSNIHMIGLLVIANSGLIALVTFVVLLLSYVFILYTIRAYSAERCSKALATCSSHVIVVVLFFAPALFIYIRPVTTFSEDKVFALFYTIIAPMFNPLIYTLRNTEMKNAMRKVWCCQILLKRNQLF
Method in brief: as §1

OR4P4 [2] = tested on: T7, OR4P4; remark: listed apart in the source
T7 sequence (whole entry): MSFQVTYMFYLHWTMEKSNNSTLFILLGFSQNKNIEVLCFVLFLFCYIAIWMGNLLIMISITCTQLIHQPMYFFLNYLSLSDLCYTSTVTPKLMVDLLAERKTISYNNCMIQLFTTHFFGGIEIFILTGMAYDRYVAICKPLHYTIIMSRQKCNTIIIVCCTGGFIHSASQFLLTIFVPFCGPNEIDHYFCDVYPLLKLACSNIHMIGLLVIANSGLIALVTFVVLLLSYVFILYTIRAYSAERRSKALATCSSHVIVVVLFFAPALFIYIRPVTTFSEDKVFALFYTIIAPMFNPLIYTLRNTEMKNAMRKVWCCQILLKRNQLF
Method in brief: as §1

OR4Q3 (Homo sapiens) = target: T8, OR4Q3 (Homo sapiens) (UniProt Q8NH05)
T8 sequence (whole entry): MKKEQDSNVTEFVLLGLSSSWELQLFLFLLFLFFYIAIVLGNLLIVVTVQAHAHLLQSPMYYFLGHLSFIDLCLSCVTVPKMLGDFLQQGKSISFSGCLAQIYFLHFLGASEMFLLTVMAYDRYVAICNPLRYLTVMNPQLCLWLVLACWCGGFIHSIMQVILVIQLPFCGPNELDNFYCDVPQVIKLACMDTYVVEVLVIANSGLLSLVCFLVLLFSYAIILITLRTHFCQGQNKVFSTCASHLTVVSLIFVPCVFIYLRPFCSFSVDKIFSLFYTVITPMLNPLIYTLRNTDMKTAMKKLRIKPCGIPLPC
Method in brief: as §1

OR4S1 (Homo sapiens) = target: T9, OR4S1 (Homo sapiens) (UniProt Q8NGB4)
T9 sequence (whole entry): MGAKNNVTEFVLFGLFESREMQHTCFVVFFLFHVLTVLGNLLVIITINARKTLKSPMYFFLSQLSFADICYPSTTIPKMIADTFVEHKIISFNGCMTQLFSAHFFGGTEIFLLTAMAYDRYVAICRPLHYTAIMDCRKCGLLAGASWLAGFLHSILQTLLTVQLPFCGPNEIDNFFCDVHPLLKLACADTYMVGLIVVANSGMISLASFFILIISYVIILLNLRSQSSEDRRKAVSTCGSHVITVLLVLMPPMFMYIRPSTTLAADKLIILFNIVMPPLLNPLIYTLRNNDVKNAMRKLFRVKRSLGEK
Method in brief: as §1

OR4S2 (Homo sapiens) = target: T10, OR4S2 (Homo sapiens) (UniProt Q8NH73)
T10 sequence (whole entry): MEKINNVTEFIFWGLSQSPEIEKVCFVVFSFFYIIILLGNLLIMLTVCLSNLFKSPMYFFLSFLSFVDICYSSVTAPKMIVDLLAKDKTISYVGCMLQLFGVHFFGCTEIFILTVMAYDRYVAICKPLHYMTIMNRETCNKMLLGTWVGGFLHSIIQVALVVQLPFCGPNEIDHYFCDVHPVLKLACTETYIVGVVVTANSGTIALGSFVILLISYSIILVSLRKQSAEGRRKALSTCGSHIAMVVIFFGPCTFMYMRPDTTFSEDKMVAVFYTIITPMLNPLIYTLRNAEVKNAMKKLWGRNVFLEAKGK
Method in brief: as §1

Measured: odorant receptor agonist call

CS
inactive: all assays above

CCC(C)=O
inactive: all assays above

CCCCOC(C)=O
inactive: all assays above
